Experimental data reported in the supplement of paper PMC3334620.
The full ranking holds about 33,000 sequences; the median of “E-score (-0.5 to 0.5)” is about -0.0059, and the highest 2% start at about 0.26. The list shows a part of the results.

molecular target: T1, Cin5 (UniProt P40917); assay: PBM E-score (8-mer binding enrichment) (E-score (-0.5 to 0.5)); higher = stronger / more preferred TF binding; settings: protein concentration: 100 nM; construct: GST-full length
T1 sequence: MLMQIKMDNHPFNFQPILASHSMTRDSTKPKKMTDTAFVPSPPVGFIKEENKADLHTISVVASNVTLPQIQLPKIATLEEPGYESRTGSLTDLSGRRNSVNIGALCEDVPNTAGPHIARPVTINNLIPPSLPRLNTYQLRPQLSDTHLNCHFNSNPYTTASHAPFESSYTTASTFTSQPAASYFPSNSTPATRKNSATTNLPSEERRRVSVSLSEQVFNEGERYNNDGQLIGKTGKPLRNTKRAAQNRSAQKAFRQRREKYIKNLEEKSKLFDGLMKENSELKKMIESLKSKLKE
Summary of the method: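 Detection of bound protein used fluorescent anti-GST, with scans normalised by masliner. The proteins were GST-tagged yeast transcription factors applied at about 100-200 nM to universal all-10-mer Agilent arrays made double-stranded by primer extension. Each ungapped eight-base word, pooled with its reverse complement, was scored with an E-score from the Universal PBM Analysis Suite.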

Sequence	PBM E-score
ACTTGACG	-0.0687
ACCCTCTG	-0.238
AAGGCCTA	-0.19
CTTTGCGA	0.0308
GGTTGATA	0.13
GAGAGGCC	-0.262
AATTGTGT	0.126
CTAGTTTA	-0.0284
CGCGCTTA	0.297
CATTTACA	0.063
ACTCATAT	0.0469
AAAGTGGA	-0.0711
AGGACGAG	-0.0866
ATACTTTA	0.206
ATCTCTAG	-0.076
CCGTCCCC	-0.289
CTGCATAC	0.109
TAGACAAA	-0.00829
CCAGGCCA	-0.259
AATGTTCG	0.0491
AACTCAAT	0.165
AACAATGG	0.125
GCGAATAC	0.15
CGGTACCC	-0.242
CCGCATGC	-0.0803

Sequence	PBM E-score
AACTGGCA	-0.0613
CCCAGCAG	-0.0156
CAAGTTAA	0.0667
ACTATACT	0.226
TTCCCCAA	0.175
CAGCATCA	0.0444
GCCATTTA	0.0536
TATTTTGA	-0.0424
CAAAGGCA	-0.156
TCGTCCAA	0.0546
GCATGCCA	-0.209
ATGGGAAT	-0.189
CACGCTTC	-0.169
CTGTTCAA	0.00171
GTGCGCTA	0.0868
AAATAGCT	0.0764
CCCATTTC	-0.0197
AAACGACT	0.0211
CTATCATA	0.21
CGTGTACC	-0.106
CACATACG	-0.0221
CAGTTGGC	-0.172
ACGCGATA	0.0786
GGCCATTA	0.0264
CGAGGAAC	0.0849

Sequence	PBM E-score
ATTCTGGA	0.0113
AGAAATGC	0.136
ACTATTAA	0.162
AAGCAGCA	-0.00515
ATTAGTCA	0.341
GTTGCCAA	-0.0741
AATATCGG	0.179
CGGTCTGA	-0.077
AATCGCAG	0.155
TCAGACAA	0.0252
CAGATAAA	0.11
GGGCGATA	-0.253
GTGCCCCA	-0.162
AATTTCTA	0.0624
AAACCCGG	0.0754
ATTGGATG	0.0851
GATCTTTA	0.0443
AGGTCTTC	-0.214
GACCACCA	-0.00784
ACCTAGCT	-0.136
AATGGAGT	0.0271
ATGTCCTG	0.0532
AAAATCAT	-0.00949
CGAACAGA	0.0198
ACCAAACC	0.0718

Sequence	PBM E-score
ACCGACAT	0.154
GTCGCGAA	-0.0343
TATCCGAA	0.105
CCGGGTTC	-0.00014
GAGAGCCA	-0.169
CCAGGCTC	-0.111
GCCAGGTA	-0.136
AAGATCAC	0.00189
AACGTTAC	0.0684
AACTATAC	0.0815
GCGATGCA	-0.141
GAAGATCA	0.045
CCTGGGAG	-0.176
GGGTGACC	-0.162
AAGGGCTA	-0.195
CGAGGATC	0.00246
GACATTCC	-0.11
CCGCCCAC	0.101
CACTCATG	0.048
CTTGCACC	0.0355
ACGCACAG	-0.0217
AGGCGCTA	-0.00892
CAAAACAA	0.0938
AGTTCATC	0.0362
AAGGATGT	0.0893

A few values from the results shown.
Under PBM E-score, CCGGGTTC shows -0.00014
Under PBM E-score, GCGATGCA shows -0.141
Under PBM E-score, GTCGCGAA shows -0.0343
Under PBM E-score, AAGATCAC shows 0.00189
Under PBM E-score, CTTGCACC shows 0.0355
Under PBM E-score, AAGGATGT shows 0.0893

Following part:

Sequence	PBM E-score
GGCGGGTA	-0.194
CACCGTTA	-0.00561
AGGCTAAA	-0.167
AAATATTG	0.222
CCGGCAAG	0.0607
GTCTATGA	0.0619
GGCGACAC	-0.212
CGTCTCGA	0.0556
AATGATTA	0.335
AAGGATCC	-0.108
GTAAACAA	0.237
CGCCATCC	-0.0115
ATGGGAAA	-0.0979
CAAAAGTC	-0.0102
ATAGCTCC	-0.144
CACTCCAA	0.0371
GCTATACA	0.0282
ACCATAGT	0.0297
GTGTCTTA	0.00212
GACTCGGC	-0.309
AGTACGCG	0.127
GCGTAATA	0.121
TATCCCCA	0.176
GAATAGTC	0.0917
GTTCAATA	0.0984

Sequence	PBM E-score
CTTTCTTA	0.0341
AAGATCCA	-0.0415
CTTCCGGA	-0.0412
AACAAGTA	0.0249
CCCTCCCA	0.106
AACCTCTG	-0.122
TGGCGCCA	0.015
ACTGGGTC	-0.227
ATGGTATA	0.21
GGAAAGAA	0.0776
TGCGCCAA	-0.0249
CGGGGTCA	-0.0205
CCTGGGAC	-0.269
AGTATACG	0.0533
AATTTACA	0.0594
CCCCTTAC	-0.131
CAATAGCA	-0.144
ACTACGCC	-0.108
ATAACATC	0.189
GCTTACGA	0.414
CGTCTCAA	0.189
AAAGAAAA	0.112
ATTCTAAC	0.0781
GTAATAGA	0.177
ACATTCAG	-0.0494

Sequence	PBM E-score
AAATAAAA	0.146
AGCCAGTA	-0.0197
TAGATATA	0.255
AATAACCA	0.0553
AATACAAC	0.236
GAGGAATC	-0.0894
CTTACCAC	0.0364
ATGATTAC	0.362
ATATAAAC	0.255
CGCACGGC	0.001
GGGTTTAA	-0.0116
AGTCGGCC	-0.115
GTTGCGAA	0.112
TCGGGCAA	-0.0455
AGACAGCG	-0.258
GTCGGTAA	-0.0358
TACAGCTA	-0.026
CGACTTGC	-0.0714
ACAATGAT	0.104
GTGAGGAA	-0.138
CGTGAAAC	-0.118
ACGCAAAT	-0.0291
GACATTAA	0.0285
CATGAGGA	0.102
CCCCACGA	-0.057

Sequence	PBM E-score
TCCACGAA	0.0641
AGCTCCTC	-0.271
CCGTGCCC	-0.272
AAACGAGT	0.139
AGTTTCAA	0.0759
CTCAATGC	-0.154
ATGTTGAA	0.229
AACGATGC	-0.189
CCACATGA	0.0875
GAAGTGAC	-0.0962
CCCAATTA	0.192
CGAAGGGC	-0.198
CTCACGTC	0.0887
CGGGACTA	-0.207
GAAACGAA	0.23
AAAATATG	0.208
ACGTTTAG	-0.0908
GCCAATTA	0.155
ATGCTTCG	-0.0239
CGTGTGTC	-0.0401
ACAGGATC	-0.169
AAATGATC	0.00639
CGGGCTCC	-0.345
CTACAGGA	-0.0551
CAGGACCG	-0.0844

Sequence	PBM E-score
GGCCTTAC	-0.103
AAAGATAA	0.195
CGGGCGGA	0.046
CTTATCAC	0.0488
GGATGCGA	-0.124
AGGAAACT	0.0384
ATTCCATC	0.251
ACCCTATA	-0.0767
ATGATAGC	0.269
AAAGCCCA	0.0381
GAAAGTCA	-0.0298
AAGAATTA	0.0191
ACCCGGAA	0.157
CTGAAGGC	-0.263
TATTTAGA	0.0382
GTCTAGAA	-0.0476
CATCCCCG	0.147
CAAAATTC	0.176
ATCTGGTC	0.0761
TGATGCAA	0.058
GACAAACA	0.097
TGCCGACA	0.0482
CCATTGTA	0.112
TACAAGCA	0.181
AATGCACT	0.135

Sequence	PBM E-score
CCCGAAAC	-0.00642
ACGTATAT	0.17
AATTAACG	0.0734
GCGTTAGA	-0.122
ATTACCTC	0.142
AACGCGAC	-0.0931
ATGCAAAG	0.0362
GGGCTTCA	-0.195
ATAGTCAG	0.0775
CAAACGCG	0.111
GCACCAGA	-0.0922
AGCCGCAA	-0.0364
CCGCTTTC	-0.108
ACAATAAT	0.267
CGACCTCG	0.0228
TCACGAGA	-0.0923
ACTGAAGC	-0.00573
CACTCCTG	-0.00638
AAGTCATC	-0.00719
AGAAGGCC	-0.126
AAGAACGG	-0.0706
CTGCCAAA	-0.065
CGATTCTA	-0.0351
AGTCCACT	-0.146
AAGAAGGT	0.00043

Sequence	PBM E-score
AAAAGTCC	-0.0209
CTACCGCC	-0.0561
CGATAAGC	-0.0158
TGGAGGAA	-0.129
AGATAGGG	-0.0638
AGACCAAG	0.0931
GAATGCAA	0.11
ACCGGTAC	-0.217
AATAATGA	0.151
GAAAATGA	0.154
ATGCGAAT	0.173
ACTCCGGA	0.189
AACGGATA	0.227
CCAGTCAA	-0.0335
AACCTTAT	-0.0545
ACGGGCAC	-0.193
CGCGAGGC	0.104
AATAGATC	0.204
CCTTAGCC	0.0505
TCTAAAGA	0.0418
CGTCCATA	0.0392
GCGGTATA	0.179
GGCCACCA	0.0556
CGGAATTA	0.201
AGAGCAAG	0.14

Sequence	PBM E-score
ACACGAGT	0.0613
GTGGCTAA	0.181
GGTACTAA	0.0479
ACAATCGT	-0.0859
ACGATCCC	0.00128
CCAAGCGG	-0.143
ACCTGATA	0.142
CCCGTTCA	-0.0227
CTATATAC	0.313
CCAACAGG	-0.247
AAAGGGGG	-0.389
TTGACAAA	0.151
GTTGCTAA	0.249
CGATCTAC	-0.0495
CCCTGTGA	-0.192
CGAACAGC	-0.168
CCTGTTAC	0.0877
CTGTGAAG	-0.109
GGAAGTTA	0.0956
ATTTCCCA	0.165
ATAACACG	0.127
AGGCATCC	-0.202
CCCCCCGG	-0.476
GGTTCATA	0.0818
AATCAAAC	0.326

Laid out differently: results already given.
GGTACTAA
  PBM E-score = 0.0479
CCCGTTCA
  PBM E-score = -0.0227

Later entries.

Sequence	PBM E-score
AGAGATCC	0.0491
CCACTTAC	0.303
CTAGCCGC	0.0223
GGCGCGCC	0.117
ACTACAAT	0.218
ATTGCAAG	0.0775
AGATCACA	-0.0856
AGGCAGAA	0.0944
CATGTGGC	0.0278
CCCGAAAG	0.0417
AAGGCTAT	-0.0601
CCCCTCCA	-0.0611
AGATTCCC	0.0626
CTATAACA	-0.122
ACGATGGG	0.0354
CCTGGGGC	-0.319
AACTGCTC	0.0453
CGCTCTCC	-0.266
ACATGAAT	0.0776
CATCTGCC	-0.0681
TAATCAGA	0.231
CATTTCAC	0.0596
CTCCGCAC	-0.199
GCCCTCAC	-0.14
CCAGTCCG	-0.296

Sequence	PBM E-score
CCATTATC	0.0699
AACAGATC	0.13
ACGCGCCC	-0.0725
GTTGGCTA	0.0116
GGGTTACC	-0.182
GCTGCTAA	-0.0425
AATACAGG	0.143
CGTGCAAC	-0.0515
GTCTTAGA	-0.201
AGGCTTAT	0.152
ATAACGGA	0.227
ATAGCCTA	-0.0542
ACAACCCC	-0.0158
GATGGTAC	0.0499
CAATTGTA	0.0279
ATCAGATC	0.0499
CGTGGATA	0.0629
AACGAGTA	0.119
ACGTTCAG	-0.226

Retrieved one by one from the entries so far (5):
Sequence	PBM E-score
GTCTTAGA	-0.201
ACAACCCC	-0.0158
ACGCGCCC	-0.0725
AGGCTTAT	0.152
CGTGCAAC	-0.0515
